Assay: in vivo
Conditions: iv, 180 mg/kg i.v., read-out: Toxicity (Mortality)
Source text: *LD50 or percentage of mortality which is given between brackets

SMILES: CCCCc1oc2ccccc2c1C(=O)c1cc(I)c(OCCN(CC)CC)c(I)c1 [AMIODARONE, reference compound]
- mortality: 50%

From patent US4178442A, “Novel cinnamoyles piperazines and homopiperazines, the method of preparing them and their application in therapeutics” (Delalande S. A., priority 1977, dated 1979)
